AC50 data for 40 molecules are collected here from PubChem BioAssay AID493014 (National Center for Advancing Translational Sciences (NCATS), 2011).

A short description of the assay: qHTS Assay to Find Inhibitors of Chronic Active B-Cell Receptor Signaling. As to conditions: ABC-DLBCL IkBa-CBG/CBR reporter, luminescence ratio (green luciferase fused to IkBa over red control in TMD8 lymphoma cells), 4 h. In a few lines: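 Doxycycline induced both beetle luciferases in TMD8 lymphoma cells; IKK-driven degradation limits the IkappaBalpha-fused green signal, while red luminescence normalises for cell number and nonspecific effects. Compounds tested up to 46 uM, 4 hrs.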
On the technique in general: In qHTS, concentration-response curves come from the screen itself.

Setting [1] is: measured here: CBR red luminescence, cell number.
Setting [2] is: measured here: IkBa-CBG green luminescence.

Some of the results follow. Shown are side measurements of this screen, not its main read-out; they come without a call. Most of these compounds were active or inconclusive in the main read-out, so they are no random draw. Potencies come from curve fits of mixed quality, noted in brackets.

In general, AC50 refers to the concentration at which the activity in the assay is half-maximal. `CC(C(=O)Nc1nccs1)c1ccc([N+](=O)[O-])cc1` (stereo not drawn): the AC50 under setting [1] is 1.78 µM [rising, partial curve, poor fit]. Turning to `COc1ccc(C(=O)COC(=O)/C=C/c2ccccc2)cc1`, the AC50 under setting [1] was 3.98 µM [rising, single point]. Turning to `O=C(Nc1nnc(C2=COCCO2)o1)c1cccc([N+](=O)[O-])c1`, the concentration at half-maximal activity (AC50) under setting [1] is 11.2 µM [rising, partial curve, poor fit]. `CNC(=O)c1sc(=S)n(-c2ccc(OC)cc2)c1N`: the half-maximal activity concentration (AC50) under setting [1] is 14.1 µM [rising, single point]. As for `CN(CC(=O)Nc1ccc(F)cc1)C(=O)C1CCN(S(=O)(=O)c2ccc3c(c2)OCCO3)CC1`, the AC50 under setting [1] was 5.17 µM [falling, partial curve, poor fit]. Regarding `CCn1nnnc1SCC(=O)Nc1nc(-c2cccs2)cs1`, the AC50 under setting [1] was 10.3 µM [falling, single point]. In the case of `Cc1ccc(OCCOC(=O)c2sc(=S)n(C)c2C)cc1`, the half-maximal activity concentration (AC50) under setting [1] was 4.47 µM [rising, full curve].

In the case of `O=C(COC(=O)c1ccccc1OCc1ccc(F)cc1)NCC1CCCO1` (stereo not drawn), under setting [1], the AC50 is 16.4 µM [falling, partial curve, poor fit]. On the same count and under the same terms, under `COc1ccc(/C=N/n2c(C)nc3ccccc3c2=O)cc1OC` stands 6.31 µM [rising, partial curve, poor fit]; under `Cc1ccc(C(=O)N/C(=C\c2ccc(-c3cc(Cl)ccc3Cl)o2)C(=O)NCc2cccnc2)cc1`, 10 µM [falling, partial curve, poor fit]; under `CSc1nc2ccc3nc(NC(=O)c4ccccc4)sc3c2s1`, 8.2 µM [falling, partial curve]. `O=C(/C=C/c1ccccc1Cl)N1CCN(c2ncccn2)CC1`: under setting [1], the AC50 was 6.51 µM [rising, single point]. As for `COCCNC(=O)C1CCN(Cc2cc3ccccc3n2Cc2ccc(C)cc2)CC1`, under setting [1], the AC50 was 35.5 µM [falling, single point].

Regarding `O=C(/C=C/c1cccs1)NC1CCCC1`, the concentration at half-maximal activity (AC50) under setting [1] was 35.5 µM [falling, single point]. As for `CCOC(=O)c1c(N)sc(C(=O)OC)c1C`, the AC50 was 14.1 µM [rising, single point] under setting [1] and 35.5 µM [falling, partial curve, poor fit] under setting [2]. With `O=C1c2ccccc2C(=O)N1CCCC[C@]12Cc3ccccc3C(O1)c1c(c3ccccc3oc1=O)O2`, the AC50 under setting [1] is 0.891 µM [falling, full curve, poor fit]. Still for that read-out and setting: the same measure for `Cc1ccc(C)c(-c2csc(NC(=O)C3=COCCO3)n2)c1`: 0.651 µM [rising, full curve, poor fit]; for `Clc1nssc1=Nc1ccccc1`: 10 µM [falling, partial curve]; for `CC1CN(S(=O)(=O)c2cccc(C(F)(F)F)c2)CC(C)O1` (stereo not drawn): 0.1 µM [falling, full curve, poor fit]. Turning to `C/C(=N\Nc1ccc(Cl)c(C(=O)O)c1)c1ccc(N2CCOCC2)cc1`, the concentration at half-maximal activity (AC50) under setting [1] is 22.4 µM [falling, single point]. Turning to `CN(CCOc1ccc(Br)cc1)C(=O)CNC(=O)c1ccc2ccccc2c1`, the half-maximal activity concentration (AC50) under setting [1] was 22.4 µM [falling, single point].

Turning to `COc1ccc(OCC(=O)N2N=C(C(F)F)CC2(O)C(F)F)cc1` (stereo not drawn), under setting [1], the AC50 was 0.326 µM [rising, full curve, poor fit]. On to `CCCCNC(=O)CC1Nc2ccccc2NC1=O` (stereo not drawn), for which the AC50 under setting [1] is 6.51 µM [rising, single point].

For the molecule `COc1ccc(C(=O)/C(=C/N(C)C)S(=O)(=O)c2ccccc2)cc1`, the AC50 under setting [1] is 0.355 µM [rising, partial curve, poor fit].

With `COc1ccc(NC(=O)c2ccc(NC(=O)N3CCSc4ncccc43)cc2)cc1`, the AC50 under setting [1] was 11.2 µM [falling, partial curve]. Same read-out and setting: the same measure for `CCn1c(Cc2cccc3ccccc23)nnc1SCC(=O)Nc1nccs1`: 29.1 µM [falling, single point]; for `O=C(CN(Cc1ccco1)C(=O)CNS(=O)(=O)c1ccccc1)NCc1ccc(F)cc1`: 2.06 µM [rising, full curve, poor fit]; for `COc1ccccc1N1CCN(C(=O)C2CCN(S(=O)(=O)c3ccc4c(c3)CC(C)N4C(C)=O)CC2)CC1` (stereo not drawn): 0.1 µM [rising, full curve, poor fit].

In the case of `CC(=O)c1cccc(NC(=S)NC(=O)c2ccccc2)c1`, the concentration at half-maximal activity (AC50) under setting [1] was 23.1 µM [falling, partial curve]. In the case of `COc1ccccc1CNn1c(-c2cccc(C)c2)nc2ccccc2c1=O`, the AC50 under setting [1] was 20.6 µM [falling, single point]. On the same count and under the same terms, the same measure for `COC(=O)c1ccc(-c2nc(O)c3cnccn23)cc1`: 0.562 µM [falling, full curve, poor fit]. For `FC(F)(F)c1cccc(NC(=S)Nc2cccc(NC(=S)Nc3cccc(C(F)(F)F)c3)n2)c1`, the AC50 under setting [1] is 0.708 µM [falling, full curve, poor fit] and the half-maximal activity concentration (AC50) under setting [2] was 25.1 µM [falling, single point]. For `CCN(CC)CCNC(=O)CCn1nc(-c2ccc(Cl)cc2)ccc1=O`, the AC50 under setting [1] was 0.112 µM [rising, full curve, poor fit]. Consider `CCOC(=O)Cn1c(=N)n(CCOc2ccc(F)cc2)c2ccccc21`, for which the concentration at half-maximal activity (AC50) under setting [1] was 2.82 µM [falling, partial curve, poor fit]. Take `COc1cccc(/C=N/Nc2nc(C)cc(=O)[nH]2)c1OC`: the AC50 under setting [1] is 22.4 µM [falling, partial curve, poor fit].

Take `Cn1c(=O)c2c(nc(Br)n2Cc2ccc3ccccc3c2)n(C)c1=O`: the AC50 under setting [1] is 10 µM [falling, partial curve].

As to `O=C1/C(=N\S(=O)(=O)c2cccs2)C([n+]2ccc(CCCc3ccccc3)cc2)=C([O-])c2ccccc21`, the AC50 under setting [1] is 6.31 µM [falling, full curve, poor fit]. Take `O=C(Cn1ncc(Cl)c(Cl)c1=O)N1CCc2ccccc21`: the AC50 by setting is: under setting [1], 3.55 µM [falling, full curve]; under setting [2], 5.01 µM [rising, full curve, poor fit]. Regarding `COc1ccc(NC(=O)CN(C)C(=O)C2CCCO2)cc1` (stereo not drawn), the half-maximal activity concentration (AC50) under setting [1] is 0.461 µM [rising, full curve, poor fit]. For the molecule `COc1ccccc1CNC(=O)c1ccc2[nH]c(C)c(C)c2c1`, under setting [1], the concentration at half-maximal activity (AC50) was 10 µM [falling, partial curve].
